Reference: the supplement of paper PMC10727501
The list shows a part of the results. This data set is noisy: repeats of one test often differ as much as different tests do.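 Free-swimming zebrafish larvae were scored for O-bend response probability to dark flashes (naive: first five; training: remaining flashes of four 60-flash blocks; test: later 60-flash block) and for turning toward alternating leftward/rightward LED motion (OMR). Six treated larvae were compared with sixty 0.1% DMSO controls; |SSMD|≥2 defined a hit.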

Test system: Danio rerio larvae (5 dpf, TLF)
Assay: OMR-Perf (SSMD vs DMSO vehicle); higher = higher than vehicle (e.g. higher dark-flash O-bend response probability, or better optomotor performance)
Details: 10 µM; pre-incubation: 30-90 min

SMILES	OMR-Perf
COc1ccc2cc1Oc1ccc(cc1)C[C@H]1c3cc(c(OC)cc3CCN1C)Oc1c(OC)c(OC)cc3c1[C@@H](C2)N(C)CC3 [Tetrandrine]	0.277
CCCCCCCN(CC)CCCC(O)c1ccc(NS(C)(=O)=O)cc1.CCCCCCCN(CC)CCCC(O)c1ccc(NS(C)(=O)=O)cc1.O=C(O)/C=C/C(=O)O (stereo not drawn) [Ibutilide Fumarate]	-0.199
CCCc1cc(C(N)=S)ccn1 [Protionamide]	0.0515
Cc1cc(Nc2ncnc3ccc(-c4ccc(CNCCS(C)(=O)=O)o4)cc23)ccc1Oc1ccn2ncnc2c1 [HER2-Inhibitor-1]	-0.69
C1(C[C@@H]2C[C@@H](C[C@@H]1N2C)OC(C3=CC=CC=C3)C4=CC=CC=C4).CS(=O)(=O)O (stereo partly drawn) [Benztropine mesylate]	-0.259
CC(=O)Oc1cc(C(F)(F)F)ccc1C(=O)O [Triflusal]	0.471
Nc1nc(NCCNc2ncc(-n3ccnc3)c(-c3ccc(Cl)cc3Cl)n2)ccc1[N+](=O)[O-]	-0.771
COc1cc(Nc2nc3ccccc3nc2NS(=O)(=O)c2ccc(NC(=O)c3ccc(C)c(OC)c3)cc2)cc(OC)c1	0.679
COc1ccc(S(=O)(=O)Nc2cccnc2Nc2ccc(O)cc2)cc1	-0.239
CC[C@]1(O)C[C@@H]2C[N@](CCc3c([nH]c4ccccc34)[C@@](C(=O)OC)(c3cc4c(cc3OC)N(C)[C@@H]3C45CCN4CC=C[C@](CC)([C@H]45)[C@H](OC(C)=O)[C@]3(O)C(=O)OC)C2)C1 (stereo partly drawn) [Vinblastine]	0.329
Nc1nc(=O)c2ncn(CCC(CO)CO)c2[nH]1 [Penciclovir]	0.253
O=C1c2c(O)cc(O)cc2O[C@H](c2ccc(O)c(O)c2)[C@H]1O [Taxifolin (Dihydroquercetin)]	-0.236
C#C[C@@]1(O)CC[C@H]2[C@@H]3CCc4cc(OC)ccc4[C@@H]3CC[C@@]21C [Mestranol]	-0.367
Cc1[nH]c(/C=C2\C(=O)Nc3ccc(S(=O)(=O)Cc4c(Cl)cccc4Cl)cc32)c(C)c1C(=O)N1CCC[C@@H]1CN1CCCC1	0.76
Cl.O=C(OCC(O)CO)c1ccccc1Nc1ccnc2cc(Cl)ccc12 (stereo not drawn) [Glafenine HCl]	-0.416
Cl.O=C1NCC2(CCN(CCc3ccccc3)CC2)O1 [Fenspiride HCl]	0.156
O=C(N/N=C/c1ccc([N+](=O)[O-])o1)c1ccc(O)cc1 [Nifuroxazide]	0.411
CN(c1ncccc1CNc1nc(Nc2ccc3c(c2)CC(=O)N3)ncc1C(F)(F)F)S(C)(=O)=O	-0.206
C/C(O)=C(\C#N)C(=O)Nc1ccc(C(F)(F)F)cc1 [Teriflunomide]	0.364
N#CC(=Cc1ccc(-c2cc(Cl)ccc2Cl)o1)C(=O)Nc1cccc2ncccc12	-0.287
Cc1nc(N)sc1-c1ccnc(Nc2ccc(N3CCOCC3)cc2)n1	0.193
Br.Br.NCCCCCNCC12CC3CC(CC(C3)C1)C2 [IEM 1754 dihydrobroMide]	0.738
COC(=O)N[C@H](C(=O)N[C@@H](Cc1ccccc1)[C@@H](O)CN(Cc1ccc(-c2ccccn2)cc1)NC(=O)[C@@H](NC(=O)OC)C(C)(C)C)C(C)(C)C.O=S(=O)(O)O [Atazanavir Sulfate]	0.198
C[C@]12C=CC(=O)C=C1CC[C@H]1[C@@H]3C[C@@H](O)[C@@](O)(C(=O)CO)[C@@]3(C)C[C@@H](O)[C@]12F [Triamcinolone]	0.067
CCOc1nc2cccc(C(=O)OCc3oc(=O)oc3C)c2n1Cc1ccc(-c2ccccc2-c2nc(=O)o[nH]2)cc1 [Azilsartan Medoxomil]	-0.263
CC(C)n1c(/C=C/[C@@H](O)C[C@@H](O)CC(=O)[O-])c(-c2ccc(F)cc2)c2ccccc21.[Na+] [Fluvastatin Sodium]	-0.132
C[N+](C)(C)CCO.[Cl-] [Choline Chloride]	-0.0373
C[C@@H]1COc2c(N3CCN(C)CC3)c(F)cc3c(=O)c(C(=O)O)cn1c23 [Levofloxacin]	-0.227
